# In the supplement of paper PMC8728848:
# This is one part of the list.
# How the values were obtained:
# Experiment in all cases: glycan array binding signal (z-score within array); higher = stronger binding
# Settings in all cases: glycan notation: IUPAC condensed, linker removed
# [1] = biological target: Neu5Ac(a2-6)Gal(b1-4)GlcNAc(b1-6)[Gal(b1-3)]GalNAc
# Method in brief: (§1)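 Glycan array data came from 3228 arrays in the Consortium for Functional Glycomics database, and only arrays with an available protein sequence were kept. Glycan names were put into IUPAC-condensed notation, and columns mapping to the same glycan were averaged. The binding signal is a within-array Z-score, averaged across arrays of one protein sequence run at different concentrations or buffers and across linkers. A negative Z-score can be read as non-binding.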
# [2] = biological target: Neu5Ac(a2-6)Gal(b1-4)GlcNAc6S
# Method in brief: as §1
# [3] = biological target: Neu5Ac(a2-6)GalNAc
# Method in brief: as §1
# [4] = biological target: Neu5Ac(a2-6)GalNAc(b1-4)GlcNAc
# Method in brief: as §1
# [5] = biological target: Neu5Ac(a2-6)GalNAc(b1-4)GlcNAc6S
# Method in brief: as §1
# [6] = biological target: Neu5Ac(a2-6)GlcNAc(b1-4)GlcNAc
# Method in brief: as §1
# [7] = biological target: Neu5Ac(a2-6)GlcNAc(b1-4)GlcNAc(b1-4)GlcNAc
# Method in brief: as §1
# [8] = biological target: Neu5Ac(a2-8)Neu5Ac
# Method in brief: as §1
# [9] = biological target: Neu5Ac(a2-8)Neu5Ac(a2-3)Gal(b1-3)GalNAc(b1-4)[Neu5Ac(a2-3)]Gal(b1-4)Glc
# Method in brief: as §1
# [10] = biological target: Neu5Ac(a2-8)Neu5Ac(a2-3)Gal(b1-3)GalNAc(b1-4)[Neu5Ac(a2-8)Neu5Ac(a2-3)]Gal(b1-4)Glc
# Method in brief: as §1
# [11] = biological target: Neu5Ac(a2-8)Neu5Ac(a2-3)Gal(b1-4)Glc
# Method in brief: as §1
# [12] = biological target: Neu5Ac(a2-8)Neu5Ac(a2-3)Gal(b1-4)GlcNAc
# Method in brief: as §1
# [13] = biological target: Neu5Ac(a2-8)Neu5Ac(a2-3)[Gal(b1-3)GalNAc(b1-4)]Gal(b1-4)Glc
# Method in brief: as §1
# [14] = biological target: Neu5Ac(a2-8)Neu5Ac(a2-3)[GalNAc(b1-4)]Gal(b1-4)Glc
# Method in brief: as §1
# [15] = biological target: Neu5Ac(a2-8)Neu5Ac(a2-8)Neu5Ac
# Method in brief: as §1
# [16] = biological target: Neu5Ac(a2-8)Neu5Ac(a2-8)Neu5Ac(a2-3)Gal(b1-4)Glc
# Method in brief: as §1
# [17] = biological target: Neu5Ac(a2-8)Neu5Ac(a2-8)Neu5Ac(a2-3)[Gal(b1-3)GalNAc(b1-4)]Gal(b1-4)Glc
# Method in brief: as §1
# [18] = biological target: Neu5Ac(a2-8)Neu5Ac(a2-8)Neu5Ac(a2-3)[GalNAc(b1-4)]Gal(b1-4)Glc
# Method in brief: as §1
# [19] = biological target: Neu5Ac(a2-8)Neu5Ac(a2-8)Neu5Ac(a2-8)Neu5Ac(a2-3)[GalNAc(b1-4)]Gal(b1-4)Glc
# Method in brief: as §1
# [20] = biological target: Neu5Ac(a2-8)Neu5Gc(a2-3)Gal(b1-4)GlcNAc
# Method in brief: as §1
# [21] = biological target: Neu5Ac(b2-6)Gal(b1-4)GlcNAc
# Method in brief: as §1
# [22] = biological target: Neu5Ac(b2-6)GalNAc
# Method in brief: as §1
# [23] = biological target: Neu5Ac9Ac(a2-3)Gal(b1-3)GlcNAc
# Method in brief: as §1
# [24] = biological target: Neu5Ac9Ac(a2-3)Gal(b1-4)GlcNAc
# Method in brief: as §1
# [25] = biological target: Neu5Ac9Ac(a2-6)Gal(b1-4)GlcNAc
# Method in brief: as §1
# [26] = biological target: Neu5Gc(a2-3)Gal(b1-3)GlcNAc
# Method in brief: as §1
# [27] = biological target: Neu5Gc(a2-3)Gal(b1-3)[Fuc(a1-4)]GlcNAc
# Method in brief: as §1
# [28] = biological target: Neu5Gc(a2-3)Gal(b1-4)Glc
# Method in brief: as §1
# [29] = biological target: Neu5Gc(a2-3)Gal(b1-4)GlcNAc
# Method in brief: as §1
# [30] = biological target: Neu5Gc(a2-3)Gal(b1-4)GlcNAc(b1-3)Gal(b1-4)GlcNAc(b1-2)Man(a1-3)[Neu5Gc(a2-3)Gal(b1-4)GlcNAc(b1-3)Gal(b1-4)GlcNAc(b1-2)Man(a1-6)]Man(b1-4)GlcNAc(b1-4)GlcNAc
# Method in brief: as §1
# [31] = biological target: Neu5Gc(a2-3)Gal(b1-4)[Fuc(a1-3)]GlcNAc
# Method in brief: as §1
# [32] = biological target: Neu5Gc(a2-6)Gal(b1-4)GlcNAc
# Method in brief: as §1
# [33] = biological target: Neu5Gc(a2-6)GalNAc
# Method in brief: as §1
# [34] = biological target: Neu5Gc(a2-8)Neu5Ac(a2-3)Gal(b1-4)GlcNAc
# Method in brief: as §1
# [35] = biological target: Neu5Gc(a2-8)Neu5Gc(a2-3)Gal(b1-4)GlcNAc
# Method in brief: as §1
# [36] = biological target: Neu5Gc(a2-8)Neu5Gc(a2-3)Gal(b1-4)GlcNAc(b1-3)Gal(b1-4)GlcNAc
# Method in brief: as §1
# [37] = biological target: Neu5Gc(a2-8)Neu5Gc(a2-6)Gal(b1-4)GlcNAc
# Method in brief: as §1
# [38] = biological target: Neu5Gc(b2-6)Gal(b1-4)GlcNAc
# Method in brief: as §1
binder,measurement,setting,value
Mermaid1 (Stilbonema majum) (protein) MGSSHHHHHHSSGLVPRGSHMAASGWLRSPQGTVVKLYRRSLSWSKADEFCKDVDGRLVVDRTADMHLFLIKNVLKEKKSRVWVGLRRTAPHSRTWIWSDGTRQNEDDLDANLWLRDEPNDAAGEEECALFMYSPWEKAWGLNDYLCRGGCRSYQFICEKWIR,glycan array binding signal (z-score),[1],-0.523
same,glycan array binding signal (z-score),[2],-0.695
same,glycan array binding signal (z-score),[3],-0.767
same,glycan array binding signal (z-score),[4],-0.985
same,glycan array binding signal (z-score),[5],-0.328
same,glycan array binding signal (z-score),[6],-0.278
same,glycan array binding signal (z-score),[7],-0.029
same,glycan array binding signal (z-score),[8],-0.351
same,glycan array binding signal (z-score),[9],-0.537
same,glycan array binding signal (z-score),[10],-0.366
same,glycan array binding signal (z-score),[11],-0.08
same,glycan array binding signal (z-score),[12],-0.021
same,glycan array binding signal (z-score),[13],-0.148
same,glycan array binding signal (z-score),[14],-0.375
same,glycan array binding signal (z-score),[15],-0.521
same,glycan array binding signal (z-score),[16],1.44
same,glycan array binding signal (z-score),[17],-1
same,glycan array binding signal (z-score),[18],-0.78
same,glycan array binding signal (z-score),[19],-0.071
same,glycan array binding signal (z-score),[20],-0.791
same,glycan array binding signal (z-score),[21],-0.105
same,glycan array binding signal (z-score),[22],-0.711
same,glycan array binding signal (z-score),[23],-0.826
same,glycan array binding signal (z-score),[24],0.536
same,glycan array binding signal (z-score),[25],0.56
same,glycan array binding signal (z-score),[26],-0.396
same,glycan array binding signal (z-score),[27],0.346
same,glycan array binding signal (z-score),[28],0.154
same,glycan array binding signal (z-score),[29],-0.417
same,glycan array binding signal (z-score),[30],-0.959
same,glycan array binding signal (z-score),[31],2.14
same,glycan array binding signal (z-score),[32],-0.041
same,glycan array binding signal (z-score),[33],-0.724
same,glycan array binding signal (z-score),[34],-0.824
same,glycan array binding signal (z-score),[35],-0.511
same,glycan array binding signal (z-score),[36],-0.614
same,glycan array binding signal (z-score),[37],0.03
same,glycan array binding signal (z-score),[38],0.506

# Reprinted at random: 2 records from the list
binder,measurement,setting,value
Mermaid1 (Stilbonema majum) (protein) MGSSHHHHHHSSGLVPRGSHMAASGWLRSPQGTVVKLYRRSLSWSKADEFCKDVDGRLVVDRTADMHLFLIKNVLKEKKSRVWVGLRRTAPHSRTWIWSDGTRQNEDDLDANLWLRDEPNDAAGEEECALFMYSPWEKAWGLNDYLCRGGCRSYQFICEKWIR,glycan array binding signal (z-score),[9],-0.537
same,glycan array binding signal (z-score),[13],-0.148
